pIC50: −log10 of the molar value. The match of structure and compound is tentative.
Legend:
wsuDLCL-2 cells = assay: Proliferation inhibition of wsuDLCL-2 tumor cells, Cell Titer-Glo; settings: read-out: CTG IC50, 144 hours incubation
Excerpt: In this experiment, the Cell Titer-Glo reagent was used to quantitatively analyze the proliferation activity of wsuDLCL-2 cells to detect the inhibitory ability of the compounds on tumor cell proliferation. The specific steps were as follows: • 1. wsuDLCL-2 cells were purchased from Nanjing Cobioer (Catalog Nos. CBP60073 and CBP60629), subcultured and maintained in logarithmic growth state using RPMI-1640 complete medium (containing 10% v/v fetal bovine serum) according to the supplier's recommended conditions. […] Before cell seeding, cells were collected in a centrifuge tube, centrifuged at 250 rcf for 3 minutes, and the culture medium was discarded. The cells were resuspended in fresh complete medium, and 20 µL of the cell suspension was taken to calculate the cell concentration using a Countstar cell counter. After adjusting the density, cells were seeded into a 96-well plate at 3,000 cells/180 µL and pre-incubated in a 37°C, 5% CO2 incubator for 4 hours. • 3. The negative and positive control groups were treated with 20 µL of control solution (non-complete medium containing 2.5% v/v DMSO). Compound gradient dilutions were prepared using non-complete medium, and 20 µL of the dilutions were added to the corresponding culture wells. The final concentration of DMSO in the test was 0.25% v/v. Subsequently, the plate was incubated in a 37°C, 5% CO2 incubator for 144 hours. • 4. 150 µL of Cell Titer-Glo (CTG) reagent was added directly to the cell culture, and the plate was incubated at room temperature in the dark for 30 minutes. The luminescence value was then read on a plate reader, and the results were used to analyze the cell proliferation ratio and compound activity. • 5. The signal value of the negative control group was set as Bottom, and the signal value of the positive control group was set as Top. The compound concentration value (logarithm) was the X-axis, and the luminescence reading at the corresponding concentration was the Y-axis, with HillSlope as the slope factor. A four-parameter logistic model (4PL logistic model) was used for fitting, and the calculation method was as follows: Y = Bottom + (Top−Bottom)/(1+10^(∧)((LogIC50−X)×HillSlope)) [formula]
After fitting, the IC50 value of the compound was calculated, and the proliferation inhibitory activity of the compound was compared based on the IC50 value.

By UniProt entry, the sequences of proteins in these tests, tags left out.
UniProt O75530, whole entry: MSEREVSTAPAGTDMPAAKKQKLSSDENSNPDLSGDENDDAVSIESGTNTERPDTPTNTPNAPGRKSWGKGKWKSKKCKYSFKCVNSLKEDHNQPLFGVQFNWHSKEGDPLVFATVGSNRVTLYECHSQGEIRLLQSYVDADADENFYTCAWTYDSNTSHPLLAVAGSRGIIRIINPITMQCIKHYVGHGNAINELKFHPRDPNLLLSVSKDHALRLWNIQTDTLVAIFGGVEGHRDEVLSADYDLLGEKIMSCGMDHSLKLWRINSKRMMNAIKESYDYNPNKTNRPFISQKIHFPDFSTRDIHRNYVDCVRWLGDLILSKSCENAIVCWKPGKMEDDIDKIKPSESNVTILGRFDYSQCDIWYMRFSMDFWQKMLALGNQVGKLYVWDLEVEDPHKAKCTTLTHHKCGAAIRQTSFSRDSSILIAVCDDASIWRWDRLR

EED protein = EED protein (Homo sapiens, UniProt O75530); assay: EED protein degradation in Karpas-422 cells, In-cell western (ICW); settings: 18 hours incubation
Pfeiffer cells = assay: Proliferation inhibition of Pfeiffer tumor cells, Cell Titer-Glo; settings: read-out: CTG IC50, 144 hours incubation

| pIC50 (wsuDLCL-2 cells) | Dmax (EED protein) | pIC50 (Pfeiffer cells) | SMILES |
| --- | --- | --- | --- |
| 7.62 | 80% | 6.77 | Cc1ncsc1-c1ccc(CNC(=O)[C@@H]2C[C@@H](O)CN2C(=O)[C@@H](NC(=O)[C@H]2C[C@@H](NC(=O)c3ccc(-c4cnc(NCc5c(F)ccc6c5CCO6)n5cnnc45)cn3)C2)C(C)(C)C)cc1 |
| 6.85 | 73% |  | Cc1ncsc1-c1ccc([C@H](C)NC(=O)[C@@H]2C[C@@H](O)CN2C(=O)[C@@H](NC(=O)COc2ccc(OC3CCN(Cc4ccc(-c5cnc(NCc6c(F)ccc7c6CCO7)n6cc(C#N)nc56)cc4)CC3)cc2)C(C)(C)C)cc1 |

More lines, now with the values behind:

| SMILES | pIC50 (wsuDLCL-2 cells) | Dmax (EED protein) | pIC50 (Pfeiffer cells) |
| --- | --- | --- | --- |
| Cc1ncsc1-c1ccc([C@H](C)NC(=O)[C@@H]2C[C@@H](O)CN2C(=O)[C@@H](NC(=O)[C@H]2C[C@@H](NC(=O)c3ccc(-c4cnc(NCc5c(F)ccc6c5CCO6)n5cnnc45)cc3)C2)C(C)(C)C)cc1 | 6.47 |  |  |
| Cc1ncsc1-c1ccc([C@H](C)NC(=O)[C@@H]2C[C@@H](O)CN2C(=O)[C@@H](NC(=O)C2CN(c3ccc(-c4cnc(NCc5c(F)ccc6c5CCO6)n5cnnc45)cc3)C2)C(C)(C)C)cc1 | 7.85 | 81% | 6.66 |
| Cc1ncsc1-c1ccc([C@H](C)NC(=O)[C@@H]2C[C@@H](O)CN2C(=O)[C@@H](NC(=O)CCCNC(=O)c2ccc(-c3cnc(NCc4c(F)ccc5c4CCO5)n4cnc(I)c34)cn2)C(C)(C)C)cc1 | > 7.00 | 81% | 7.52 |
| Cc1ncsc1-c1ccc(CNC(=O)[C@@H]2C[C@@H](O)CN2C(=O)[C@@H](NC(=O)[C@H]2C[C@@H](NC(=O)c3ccc(-c4cnc(NCc5c(F)ccc6c5CCO6)n5cnnc45)cc3)C2)C(C)(C)C)cc1 | 6.47 |  |  |
| Cc1ncsc1-c1ccc([C@H](C)NC(=O)[C@@H]2C[C@@H](O)CN2C(=O)[C@@H](NC(=O)[C@H]2C[C@@H](NC(=O)c3ccc(-c4cnc(NCc5c(F)ccc6c5CCO6)n5cnnc45)cn3)C2)C(C)(C)C)cc1 | 6.57 | 65% |  |

Source: patent publication EP4831176A1, “BICYCLIC FUSED HETEROAROMATIC RING DERIVATIVE, AND PHARMACEUTICAL COMPOSITION AND USE THEREOF” (dated 2026)
